Results are given in words; binding and its absence hold for the method and conditions named. In cells and extracts the contact can be indirect. A yes stands for co-enrichment or nearness to the bait. Other partners may have been found. A no says only that the protein was not detected with the bait.

Chains of the proteins cited; added tags and fusions are not shown. Residues count along the entry.
UniProt O14920: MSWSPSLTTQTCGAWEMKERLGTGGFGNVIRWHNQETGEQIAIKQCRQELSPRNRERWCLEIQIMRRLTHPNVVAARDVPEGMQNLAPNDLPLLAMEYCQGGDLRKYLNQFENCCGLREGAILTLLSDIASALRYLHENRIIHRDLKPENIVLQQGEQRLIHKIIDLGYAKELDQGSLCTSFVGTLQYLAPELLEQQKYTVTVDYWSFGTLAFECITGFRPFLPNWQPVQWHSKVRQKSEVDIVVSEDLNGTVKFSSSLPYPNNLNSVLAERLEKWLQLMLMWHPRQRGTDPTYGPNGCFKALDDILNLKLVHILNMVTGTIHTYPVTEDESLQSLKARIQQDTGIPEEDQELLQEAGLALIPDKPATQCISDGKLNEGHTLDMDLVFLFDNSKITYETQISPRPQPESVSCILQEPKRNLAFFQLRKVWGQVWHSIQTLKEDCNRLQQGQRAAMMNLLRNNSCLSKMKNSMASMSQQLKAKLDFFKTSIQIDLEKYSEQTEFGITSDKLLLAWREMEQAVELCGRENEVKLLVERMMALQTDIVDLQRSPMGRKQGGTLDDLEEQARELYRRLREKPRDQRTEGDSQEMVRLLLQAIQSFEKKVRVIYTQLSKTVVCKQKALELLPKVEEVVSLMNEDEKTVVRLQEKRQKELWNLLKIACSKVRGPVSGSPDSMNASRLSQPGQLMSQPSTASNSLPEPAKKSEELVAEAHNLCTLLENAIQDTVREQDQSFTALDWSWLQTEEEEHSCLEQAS
UniProt P07996, residues 19-1170: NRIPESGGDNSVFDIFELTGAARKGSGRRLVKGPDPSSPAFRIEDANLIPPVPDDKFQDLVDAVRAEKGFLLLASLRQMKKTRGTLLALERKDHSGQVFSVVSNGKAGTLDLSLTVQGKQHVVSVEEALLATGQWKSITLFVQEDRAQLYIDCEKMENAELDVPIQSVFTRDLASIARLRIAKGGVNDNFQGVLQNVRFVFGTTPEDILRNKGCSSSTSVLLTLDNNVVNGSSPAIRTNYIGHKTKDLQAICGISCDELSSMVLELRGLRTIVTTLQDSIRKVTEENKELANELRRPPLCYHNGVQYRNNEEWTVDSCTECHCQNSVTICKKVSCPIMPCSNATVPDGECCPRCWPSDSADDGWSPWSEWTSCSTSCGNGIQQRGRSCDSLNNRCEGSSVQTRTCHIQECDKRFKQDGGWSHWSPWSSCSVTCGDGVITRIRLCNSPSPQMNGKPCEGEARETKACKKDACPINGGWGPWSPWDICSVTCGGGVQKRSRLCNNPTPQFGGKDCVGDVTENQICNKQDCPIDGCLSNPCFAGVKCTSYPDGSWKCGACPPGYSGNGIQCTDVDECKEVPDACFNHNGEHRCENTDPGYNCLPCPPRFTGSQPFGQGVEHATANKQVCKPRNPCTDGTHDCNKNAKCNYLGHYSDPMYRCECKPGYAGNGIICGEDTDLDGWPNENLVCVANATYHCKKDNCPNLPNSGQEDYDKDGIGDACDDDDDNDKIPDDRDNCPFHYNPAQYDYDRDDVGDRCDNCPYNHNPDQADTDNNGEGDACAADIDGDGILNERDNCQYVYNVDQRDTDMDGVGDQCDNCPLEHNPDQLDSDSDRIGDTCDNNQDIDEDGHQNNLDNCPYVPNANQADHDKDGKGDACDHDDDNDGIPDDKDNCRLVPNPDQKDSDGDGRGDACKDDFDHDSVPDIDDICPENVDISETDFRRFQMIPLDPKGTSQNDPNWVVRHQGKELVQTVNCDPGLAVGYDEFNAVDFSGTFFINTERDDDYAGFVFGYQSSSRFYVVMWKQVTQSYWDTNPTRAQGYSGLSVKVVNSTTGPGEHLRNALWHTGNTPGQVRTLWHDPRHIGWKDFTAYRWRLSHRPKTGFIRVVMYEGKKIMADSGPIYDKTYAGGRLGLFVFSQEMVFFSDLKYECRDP
UniProt Q3ZCQ8, residues 45-353: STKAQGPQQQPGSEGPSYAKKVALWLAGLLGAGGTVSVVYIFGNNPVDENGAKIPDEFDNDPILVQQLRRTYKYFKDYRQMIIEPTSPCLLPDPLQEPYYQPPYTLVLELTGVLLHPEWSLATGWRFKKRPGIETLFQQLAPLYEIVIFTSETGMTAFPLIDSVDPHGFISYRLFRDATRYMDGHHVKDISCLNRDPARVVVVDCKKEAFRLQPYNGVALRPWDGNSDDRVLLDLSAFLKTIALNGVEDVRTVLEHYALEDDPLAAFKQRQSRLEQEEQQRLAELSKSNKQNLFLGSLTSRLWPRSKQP
UniProt O43795: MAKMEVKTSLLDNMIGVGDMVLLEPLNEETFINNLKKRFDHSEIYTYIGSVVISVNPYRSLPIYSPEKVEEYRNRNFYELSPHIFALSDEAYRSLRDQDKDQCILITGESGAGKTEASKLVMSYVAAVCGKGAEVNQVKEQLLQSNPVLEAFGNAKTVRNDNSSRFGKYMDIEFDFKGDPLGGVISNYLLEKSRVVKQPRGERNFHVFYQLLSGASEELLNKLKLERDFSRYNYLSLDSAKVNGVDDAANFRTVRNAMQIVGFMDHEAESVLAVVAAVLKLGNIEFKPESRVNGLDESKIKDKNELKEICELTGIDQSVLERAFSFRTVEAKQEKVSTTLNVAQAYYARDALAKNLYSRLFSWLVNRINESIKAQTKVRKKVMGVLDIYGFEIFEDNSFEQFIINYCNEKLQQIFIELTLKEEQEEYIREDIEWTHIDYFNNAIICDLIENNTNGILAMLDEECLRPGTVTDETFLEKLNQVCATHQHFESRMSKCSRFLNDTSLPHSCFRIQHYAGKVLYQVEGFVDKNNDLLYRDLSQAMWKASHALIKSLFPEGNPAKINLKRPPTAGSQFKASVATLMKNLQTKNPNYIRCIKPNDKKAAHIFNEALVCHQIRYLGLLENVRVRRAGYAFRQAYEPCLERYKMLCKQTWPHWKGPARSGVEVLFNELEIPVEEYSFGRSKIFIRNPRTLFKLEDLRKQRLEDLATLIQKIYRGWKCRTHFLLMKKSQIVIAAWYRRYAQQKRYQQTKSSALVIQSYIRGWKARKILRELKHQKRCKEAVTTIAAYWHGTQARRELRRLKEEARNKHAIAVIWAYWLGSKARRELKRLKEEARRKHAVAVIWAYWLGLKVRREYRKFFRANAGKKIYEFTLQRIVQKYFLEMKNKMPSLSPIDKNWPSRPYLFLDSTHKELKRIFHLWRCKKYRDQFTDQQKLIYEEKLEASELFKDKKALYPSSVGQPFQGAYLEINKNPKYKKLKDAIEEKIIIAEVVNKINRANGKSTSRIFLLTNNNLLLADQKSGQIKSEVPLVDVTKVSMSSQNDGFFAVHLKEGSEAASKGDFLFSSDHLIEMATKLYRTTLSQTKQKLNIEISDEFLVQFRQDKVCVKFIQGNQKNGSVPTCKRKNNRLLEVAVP
UniProt Q9Y6K9: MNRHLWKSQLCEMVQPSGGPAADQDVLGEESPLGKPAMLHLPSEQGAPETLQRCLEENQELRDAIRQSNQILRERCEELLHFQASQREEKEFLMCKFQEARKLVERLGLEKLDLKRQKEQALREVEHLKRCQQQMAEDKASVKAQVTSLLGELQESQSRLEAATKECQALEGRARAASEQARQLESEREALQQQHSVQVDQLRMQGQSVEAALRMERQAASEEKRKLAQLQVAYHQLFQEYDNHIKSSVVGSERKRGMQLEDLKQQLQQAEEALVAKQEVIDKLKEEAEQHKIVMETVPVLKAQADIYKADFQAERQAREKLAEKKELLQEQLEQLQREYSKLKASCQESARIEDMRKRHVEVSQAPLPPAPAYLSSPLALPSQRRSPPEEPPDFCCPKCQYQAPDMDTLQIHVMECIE
UniProt P31943: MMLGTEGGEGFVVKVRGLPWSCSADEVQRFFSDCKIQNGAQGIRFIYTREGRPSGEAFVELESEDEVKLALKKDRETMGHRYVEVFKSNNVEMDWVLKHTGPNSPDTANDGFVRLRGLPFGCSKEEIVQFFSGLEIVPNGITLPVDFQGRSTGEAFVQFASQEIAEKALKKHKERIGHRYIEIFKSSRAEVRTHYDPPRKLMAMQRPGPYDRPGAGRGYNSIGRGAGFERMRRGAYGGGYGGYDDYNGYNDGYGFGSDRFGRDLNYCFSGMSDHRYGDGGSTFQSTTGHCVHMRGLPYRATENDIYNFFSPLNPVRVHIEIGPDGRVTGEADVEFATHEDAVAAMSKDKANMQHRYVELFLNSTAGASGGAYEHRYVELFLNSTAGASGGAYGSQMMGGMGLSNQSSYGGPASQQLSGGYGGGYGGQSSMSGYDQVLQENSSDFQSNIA
UniProt P01024, residues 23-1663: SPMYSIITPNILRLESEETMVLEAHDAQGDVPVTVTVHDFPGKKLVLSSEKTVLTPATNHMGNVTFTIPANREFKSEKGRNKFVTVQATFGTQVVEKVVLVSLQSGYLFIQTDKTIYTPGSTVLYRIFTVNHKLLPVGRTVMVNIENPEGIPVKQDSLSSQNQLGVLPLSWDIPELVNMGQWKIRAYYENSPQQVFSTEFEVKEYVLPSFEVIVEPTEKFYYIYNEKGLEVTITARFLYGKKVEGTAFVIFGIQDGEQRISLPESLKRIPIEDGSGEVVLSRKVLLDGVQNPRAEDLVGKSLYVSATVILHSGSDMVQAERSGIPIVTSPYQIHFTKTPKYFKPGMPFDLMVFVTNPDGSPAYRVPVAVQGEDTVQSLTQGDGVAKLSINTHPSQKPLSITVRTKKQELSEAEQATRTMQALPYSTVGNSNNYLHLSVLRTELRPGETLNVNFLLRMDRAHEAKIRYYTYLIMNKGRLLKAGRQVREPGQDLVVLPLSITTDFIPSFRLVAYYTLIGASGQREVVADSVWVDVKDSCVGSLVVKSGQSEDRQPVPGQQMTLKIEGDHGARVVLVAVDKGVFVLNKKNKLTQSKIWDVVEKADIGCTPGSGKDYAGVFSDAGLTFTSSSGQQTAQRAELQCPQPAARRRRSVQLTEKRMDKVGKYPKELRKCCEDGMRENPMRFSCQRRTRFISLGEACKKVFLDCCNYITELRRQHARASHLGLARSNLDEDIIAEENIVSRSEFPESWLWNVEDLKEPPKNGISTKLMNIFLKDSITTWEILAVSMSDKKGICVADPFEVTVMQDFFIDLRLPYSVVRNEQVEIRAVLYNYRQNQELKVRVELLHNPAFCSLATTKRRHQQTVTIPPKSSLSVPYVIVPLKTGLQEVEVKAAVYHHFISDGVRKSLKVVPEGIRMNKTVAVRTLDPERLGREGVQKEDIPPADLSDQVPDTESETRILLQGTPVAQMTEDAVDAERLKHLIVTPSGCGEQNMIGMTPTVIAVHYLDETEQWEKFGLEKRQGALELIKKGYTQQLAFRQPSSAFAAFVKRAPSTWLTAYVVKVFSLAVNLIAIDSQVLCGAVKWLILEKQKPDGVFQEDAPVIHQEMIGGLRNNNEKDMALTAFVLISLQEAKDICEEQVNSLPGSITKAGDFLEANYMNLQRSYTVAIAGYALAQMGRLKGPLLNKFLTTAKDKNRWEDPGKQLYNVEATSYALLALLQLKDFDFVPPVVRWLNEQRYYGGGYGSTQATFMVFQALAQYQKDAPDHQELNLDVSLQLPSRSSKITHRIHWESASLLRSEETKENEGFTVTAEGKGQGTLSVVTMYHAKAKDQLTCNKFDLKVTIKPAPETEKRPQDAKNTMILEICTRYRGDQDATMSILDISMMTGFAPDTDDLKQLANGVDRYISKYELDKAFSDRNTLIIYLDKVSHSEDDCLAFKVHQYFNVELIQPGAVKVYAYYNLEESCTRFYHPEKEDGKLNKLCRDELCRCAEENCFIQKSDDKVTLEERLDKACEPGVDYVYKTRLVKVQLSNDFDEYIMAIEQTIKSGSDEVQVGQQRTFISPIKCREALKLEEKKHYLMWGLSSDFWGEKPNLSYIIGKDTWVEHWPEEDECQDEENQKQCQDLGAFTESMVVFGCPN
UniProt P11940: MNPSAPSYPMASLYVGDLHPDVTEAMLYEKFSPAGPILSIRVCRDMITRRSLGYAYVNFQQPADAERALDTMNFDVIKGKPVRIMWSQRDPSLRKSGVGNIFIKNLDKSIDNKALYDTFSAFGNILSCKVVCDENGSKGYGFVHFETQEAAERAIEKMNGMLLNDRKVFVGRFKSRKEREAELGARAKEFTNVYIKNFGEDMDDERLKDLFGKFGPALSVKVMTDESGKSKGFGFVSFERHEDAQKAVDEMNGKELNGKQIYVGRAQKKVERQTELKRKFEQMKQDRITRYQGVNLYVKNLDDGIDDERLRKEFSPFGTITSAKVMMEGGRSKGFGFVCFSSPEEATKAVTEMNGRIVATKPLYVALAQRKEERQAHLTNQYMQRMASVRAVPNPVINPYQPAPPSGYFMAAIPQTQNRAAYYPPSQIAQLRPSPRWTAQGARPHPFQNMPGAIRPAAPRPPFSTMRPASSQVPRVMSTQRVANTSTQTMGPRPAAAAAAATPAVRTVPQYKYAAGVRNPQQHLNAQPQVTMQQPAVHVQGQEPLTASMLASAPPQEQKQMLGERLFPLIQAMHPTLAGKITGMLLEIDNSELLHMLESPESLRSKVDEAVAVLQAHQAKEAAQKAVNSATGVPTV

One assay has as its target T1, IKKα (human (endogenous in A549)) (UniProt O15111).
T1 sequence: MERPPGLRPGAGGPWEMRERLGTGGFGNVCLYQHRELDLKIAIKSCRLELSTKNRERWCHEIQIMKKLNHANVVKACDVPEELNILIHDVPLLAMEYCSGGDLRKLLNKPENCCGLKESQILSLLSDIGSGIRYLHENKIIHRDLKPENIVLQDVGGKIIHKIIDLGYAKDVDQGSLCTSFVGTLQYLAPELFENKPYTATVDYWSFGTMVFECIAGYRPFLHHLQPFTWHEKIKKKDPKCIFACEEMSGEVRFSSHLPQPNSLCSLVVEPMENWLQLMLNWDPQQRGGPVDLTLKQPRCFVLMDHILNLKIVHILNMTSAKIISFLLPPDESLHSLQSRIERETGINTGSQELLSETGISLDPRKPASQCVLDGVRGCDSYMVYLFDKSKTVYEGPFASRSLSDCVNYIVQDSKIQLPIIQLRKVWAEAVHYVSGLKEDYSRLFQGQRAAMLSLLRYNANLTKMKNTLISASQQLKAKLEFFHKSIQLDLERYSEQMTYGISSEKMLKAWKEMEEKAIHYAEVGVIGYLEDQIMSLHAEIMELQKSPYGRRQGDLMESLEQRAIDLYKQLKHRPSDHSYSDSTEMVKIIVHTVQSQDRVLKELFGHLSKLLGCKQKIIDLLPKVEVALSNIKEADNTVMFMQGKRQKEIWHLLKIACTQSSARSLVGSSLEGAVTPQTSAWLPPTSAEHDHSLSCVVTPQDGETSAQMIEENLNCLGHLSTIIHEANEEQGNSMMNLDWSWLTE
In words: affinity purification with mass spectrometry; A549 lysate (M-PER), 400 uL with 2 ug agarose-conjugated mouse anti-IKKα or rabbit anti-NEMO antibody, 1 h at room temperature, five PBS washes; SDS-PAGE, in-gel trypsin, LC-MS/MS; scored (FC-A, FC-B, SAINT) against agarose-conjugated isotype IgG and CRAPome controls; resting cells.
With “clathrin light chain (human (endogenous in A549))”, the binding entry is listed as “no binding”.

As to FN1 (from UniProt P02751 32-2477), the binding result is “binds”.

For ILF2 (from UniProt Q12905 1-390), the binding entry is “binds”.

Consider “clathrin heavy chain 1 (from UniProt Q00610 1-1675)”, for which the binding result is listed as “binds”.

Turning to IKKβ (from UniProt O14920 1-756), the binding result is reported as “binds”.

On to THBS1 (from UniProt P07996 19-1170), for which the binding entry is “binds”.

Take ELKS (from UniProt Q8IUD2 1-1116): the binding result was “no binding”.

On to TIMM50 (from UniProt Q3ZCQ8 45-353), for which the binding entry is recorded as “binds”.

SSSCA1 (human (endogenous in A549)): the binding result is “binds”.

As to SBF2 (from UniProt Q86WG5 1-1849), the binding result is “binds”.

Consider MYO1B (from UniProt O43795 1-1136), for which the binding entry is “binds”.

The target in a further assay is NEMO (NF-kB essential modulator) (human (endogenous in A549)) (UniProt Q9Y6K9). Described as above.
Turning to HNRH1_HUMAN (from UniProt P31943 1-449), the binding result is “binds”.

As for VCP (from UniProt P55072 1-806), the binding result is given as “binds”.

Regarding ILF2 (from UniProt Q12905 1-390), the binding result is “binds”.

For the substance EWSR1 (from UniProt Q01844 1-656), the binding result is on record as “binds”.

In the case of “clathrin heavy chain 1 (from UniProt Q00610 1-1675)”, the binding result is reported as “binds”.

In the case of ELKS (from UniProt Q8IUD2 1-1116), the binding entry is “no binding”.

Consider TRIM21 (from UniProt P19474 1-475), for which the binding result is “binds”.

Turning to FUS (from UniProt P35637 1-526), the binding entry is “binds”.

For C3 (from UniProt P01024 23-1663), the binding entry is “binds”.

“PABPC1, a polyA-binding protein (from UniProt P11940 1-636)”: the binding entry is given as “binds”.

The values are drawn from article PMC4187570.
